These are yes or no findings as the source states them, for the method shown. Some binding calls cover weakened binding; strength is not graded here.
Molecular target: Rrp42 protein of P. abyssi, characterised individually (Pyrococcus abyssi) (UniProt Q9V118)
Assay: gel filtration of Rrp42 alone (self-association)

B1: Rrp42 protein of P. abyssi, characterised individually (protein, Pyrococcus abyssi, UniProt Q9V118 1-274, looked up)
chain: MSDNEIVAGIMRDHIINLLKEGKRIDDRGFEDYRPIEIEVGVIEKAEGSALVKLGSTQVLVGIKTSLGEPFPDTPNMGVMTTNVELVPLASPTFEPGPPDERAIELARVIDRGIRESKALNLEKMVIVPGKIVRVVFIDVHVLDHDGNLMDAIGIAAIAALLNARVPKVRYNEETGEVETLDETEPLPVEKIPVPVTFAKIGNILVVDPSLDEELVMDGKITITTDETGHISAVQKSEGGAFKLEEVMYAVETAFKKAEEIRKLILEAVEKAKQ
  binding: binds

From patent US20180135060A1 (OURO FINO SAUDE ANIMAL LTDA, published 2018)
